In patent US12024543B2, “Micropeptides and use of same for modulating gene expression” (UNIVERSITE PAUL SABATIER TOULOUSE III, priority 2013, dated 2024):

Tested on: roots of M. truncatula
Experiment: Immunolocalization of miPEP171b in roots of M. truncatula
Set-up: species or system Medicago truncatula

For “MLLHRLSKFCKIERDIVYIS (listed as Medicago truncatula) [MtmiPEP171b1]”, the “immunolocalization with anti-miPEP171b antibody” value (listed as miPEP171b) was “presence of miPEP171b in the lateral root initiation sites” and the “immunolocalization with anti-miPEP171b antibody” value (listed as miPEP171b1) was “presence of miPEP171b1 in the lateral root initiation sites”.
